Test results: the supplement of paper PMC10331698
± gives the standard deviation of the averaged measurements. Most values lie at the level of the controls, where differences are scatter.

Key:
Assay in all cases: level (log10 ratio to DMSO vehicle control); higher = higher biomarker level / cell amount than vehicle control
[1] = compound: O=C(O)C(F)(F)C(F)(F)C(F)(F)C(F)(F)C(F)(F)C(F)(F)C(F)(F)C(F)(F)C(F)(F)C(F)F [11-H-Perfluoroundecanoic acid]; conditions: 2200 nM; in DMSO
Protocol: (§1)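 BioMAP Diversity Plus panel of 12 human primary cell co-culture systems (3C, 4H, LPS, SAg, BT, BF4T, BE3C, CASM3C, HDF3CGF, KF3CT, MyoF, Mphg). Compounds were added 1 h before stimulation and left for 24 h (MyoF 48 h; BT 72 h for soluble read-outs or 6 d for IgG). Biomarkers were read by ELISA, cytotoxicity by SRB, PBMC viability and proliferation by Alamar Blue. Each well value was divided by the mean of 8 DMSO control wells on the same plate and log10 transformed; duplicate blinded samples were tested at 4 concentrations.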

[2] = compound: CCN(CCO)S(=O)(=O)C(F)(F)C(F)(F)C(F)(F)C(F)(F)C(F)(F)C(F)(F)C(F)(F)C(F)(F)F [N-Ethyl-N-(2-hydroxyethyl)perfluorooctanesulfonamide]; conditions: in DMSO
Protocol: as §1

[3] = compound: O=C(O)C(F)(F)C(F)(F)C(F)(F)C(F)(F)F [Perfluoropentanoic acid]; conditions: in DMSO
Protocol: as §1

[4] = compound: Cc1ccc(S(=O)(=O)OCC(F)(F)C(F)(F)C(F)(F)C(F)(F)C(F)(F)C(F)F)cc1 [1H,1H,7H-Perfluoroheptyl 4-methylbenzenesulfonate]; conditions: 2200 nM; in DMSO
Protocol: as §1

[5] = compound: O=C(O)C(F)(F)C(F)(F)C(F)(F)OC(F)(F)F [Perfluoro(4-methoxybutanoic) acid]; conditions: 2200 nM; in DMSO
Protocol: as §1

[6] = compound: OCC(F)(F)C(F)(F)C(F)(F)F [1H,1H-Heptafluorobutanol]; conditions: 2200 nM; in DMSO
Protocol: as §1

[7] = compound: CCCCCCCCC(F)(F)C(F)(F)C(F)(F)C(F)(F)C(F)(F)C(F)(F)F [1-(Perfluorohexyl)octane]; conditions: in DMSO
Protocol: as §1

[8] = compound: OCCC(F)(F)C(F)(F)C(F)(F)C(F)(F)C(F)(F)C(F)(F)F [6:2 Fluorotelomer alcohol]; conditions: 2200 nM; in DMSO
Protocol: as §1

[9] = compound: O=C(O)C(F)(F)C(F)(F)C(F)(F)C(F)(F)C(=O)O [Octafluoroadipic acid]; conditions: 2200 nM; in DMSO
Protocol: as §1

[10] = compound: CN(C(=O)C(F)(F)C(F)(F)C(F)(F)F)[Si](C)(C)C [N-Methyl-N-trimethylsilylheptafluorobutyramide]; conditions: 2200 nM; in DMSO
Protocol: as §1

[11] = compound: NC(=O)C(F)(F)C(F)(F)C(F)(F)F [Heptafluorobutyramide]; conditions: 2200 nM; in DMSO
Protocol: as §1

[12] = compound: O=S(=O)(O)CCC(F)(F)C(F)(F)C(F)(F)C(F)(F)C(F)(F)C(F)(F)C(F)(F)C(F)(F)F [8:2 Fluorotelomer sulfonic acid]; conditions: in DMSO
Protocol: as §1

[13] = compound: NCC(F)(F)C(F)(F)C(F)(F)C(F)(F)C(F)(F)C(F)(F)C(F)(F)F [1H,1H-Perfluorooctylamine]; conditions: 2200 nM; in DMSO
Protocol: as §1

[14] = compound: FC(F)(F)C(F)(F)C(F)(F)C(F)(F)C(F)(F)C(F)(F)CC1CO1 [3-(Perfluorohexyl)-1,2-epoxypropane]; conditions: 2200 nM; in DMSO
Protocol: as §1

[15] = compound: O=C(O)C(F)(F)C(F)(F)C(F)(F)C(F)(F)C(F)(F)C(F)(F)F [Perfluoroheptanoic acid]; conditions: in DMSO
Protocol: as §1

[16] = compound: CC(C)(C)C(=O)CC(=O)C(F)(F)C(F)(F)C(F)(F)F [(Heptafluorobutanoyl)pivaloylmethane]; conditions: 2200 nM; in DMSO
Protocol: as §1

Test System | level (log10) [1] | level (log10) ([2]; 2200 nM) | level (log10) ([2]; 6700 nM) | level (log10) ([2]; 20000 nM) | level (log10) ([3]; 2200 nM) | level (log10) ([3]; 6700 nM) | level (log10) ([3]; 20000 nM) | level (log10) ([3]; 60000 nM) | level (log10) [4] | level (log10) [5] | level (log10) [6] | level (log10) ([7]; 740 nM) | level (log10) ([7]; 2200 nM) | level (log10) [8] | level (log10) [9] | level (log10) [10] | level (log10) [11] | level (log10) ([12]; 2200 nM) | level (log10) ([12]; 6700 nM) | level (log10) ([12]; 20000 nM) | level (log10) ([12]; 60000 nM) | level (log10) [13] | level (log10) [14] | level (log10) ([15]; 2200 nM) | level (log10) ([15]; 6700 nM) | level (log10) ([15]; 20000 nM) | level (log10) ([15]; 60000 nM) | level (log10) [16]
lMphg:CD40 | -0.0265 ± 0.018 | -0.011 ± 0.0057 | -0.025 ± 0.017 | -0.0335 ± 0.018 | -0.021 ± 0.0014 | 0.0225 ± 0.0092 | -0.0085 ± 0.0064 | 0.0175 ± 0.0078 | -0.0075 ± 0.00071 | -0.0365 ± 0.025 | 0 ± 0.017 | -0.013 ± 0.0014 | -0.0015 ± 0.021 | -0.015 ± 0.024 | -0.0475 ± 0.012 | -0.0005 ± 0.052 | -0.009 ± 0.0099 | -0.03 ± 0.034 | -0.026 ± 0.023 | -0.052 ± 0.0028 | -0.0995 ± 0.019 | -0.0245 ± 0.042 | -0.0145 ± 0.021 | -0.0285 ± 0.028 | -0.0045 ± 0.018 | -0.0265 ± 0.012 | -0.028 ± 0.027 | 0.024 ± 0.04
lMphg:M-CSF | 0.0035 ± 0.022 | -0.0065 ± 0.012 | -0.001 ± 0.0057 | 0.0105 ± 0.0035 | -0.016 ± 0.033 | -0.028 ± 0.045 | 0.006 ± 0.035 | 0.0095 ± 0.049 | -0.016 ± 0.0099 | 0.0125 ± 0.033 | 0.007 ± 0.013 | -0.016 ± 0.0099 | 0.012 ± 0.013 | 0.008 ± 0.014 | 0.0005 ± 0.015 | -0.012 ± 0.034 | 0.0075 ± 0.044 | -0.007 ± 0.011 | -0.0075 ± 0.033 | -0.014 ± 0.013 | 0.012 | -0.0265 ± 0.023 | -0.0075 ± 0.012 | 0.013 ± 0.024 | -0.006 ± 0.0014 | -0.001 ± 0.016 | 0.005 ± 0.0071 | -0.033 ± 0.069
HDF3CGF:CXCL11/I-TAC | -0.108 ± 0.064 | 0.0245 ± 0.016 | -0.0535 ± 0.046 | -0.172 ± 0.041 | -0.006 ± 0.0099 | -0.0085 ± 0.012 | -0.0065 ± 0.015 | 0.005 ± 0.054 | -0.0215 ± 0.025 | -0.03 | -0.0015 ± 0.037 | -0.024 ± 0.028 | -0.022 ± 0.013 | 0.003 ± 0.011 | -0.0075 ± 0.0021 | -0.0065 ± 0.035 | -0.0055 ± 0.012 | -0.0075 ± 0.0035 | -0.053 ± 0.027 | -0.0285 ± 0.03 | -0.0865 ± 0.067 | -0.041 ± 0.013 | 0.009 ± 0.0028 | 0.0025 ± 0.016 | -0.0165 ± 0.013 | 0.003 ± 0.011 | 0.01 ± 0.016 | -0.0075 ± 0.013
LPS:CD40 | -0.0205 ± 0.0035 | 0.0575 ± 0.049 | 0.0735 ± 0.022 | 0.122 ± 0.0042 | 0.003 ± 0.0071 | 0.0115 ± 0.011 | 0.0075 ± 0.022 | -0.0265 ± 0.013 | 0.0075 ± 0.05 | -0.026 ± 0.0028 | 0.054 ± 0.02 | -0.025 ± 0.027 | 0.01 ± 0.082 | -0.0275 ± 0.057 | -0.012 ± 0.085 | -0.0185 ± 0.036 | -0.013 | 0.0105 ± 0.011 | 0.037 ± 0.016 | -0.0195 ± 0.021 | -0.128 ± 0.024 | -0.035 ± 0.023 | -0.072 ± 0.096 | -0.0175 ± 0.044 | -0.0135 ± 0.043 | 0.0055 ± 0.00071 | -0.0515 ± 0.079 | 0.024 ± 0.042
BF4T:tPA | -0.0805 ± 0.0035 | 0.059 ± 0.02 | 0.0595 ± 0.0064 | 0.067 ± 0.0028 | -0.0015 ± 0.0078 | -0.0295 ± 0.005 | -0.0215 ± 0.029 | -0.009 ± 0.061 | -0.0095 ± 0.026 | 0.015 ± 0.027 | 0.0155 ± 0.018 | 0.0095 ± 0.039 | 0.001 ± 0.025 | 0.036 ± 0.081 | 0.0125 ± 0.033 | 0.0125 ± 0.018 | 0.009 ± 0.024 | -0.0005 ± 0.063 | -0.0045 ± 0.028 | -0.0525 ± 0.0021 | -0.0465 ± 0.016 | 0.0065 ± 0.077 | 0.013 ± 0.082 | 0.0385 ± 0.067 | -0.0125 ± 0.005 | -0.0145 ± 0.015 | 0.004 ± 0.073 | -0.004 ± 0.028
BE3C:CD54/ICAM-1 | -0.002 ± 0.028 | 0.0375 ± 0.0092 | 0.0705 ± 0.033 | 0.0555 ± 0.013 | 0.0085 ± 0.025 | -0.006 ± 0.0085 | -0.0095 ± 0.00071 | 0.0055 ± 0.039 | 0.0085 ± 0.0092 | -0.007 ± 0.014 | 0.0185 ± 0.0092 | 0.011 ± 0.023 | 0.004 ± 0.017 | 0.0215 ± 0.05 | -0.0015 ± 0.018 | -0.02 ± 0.016 | -0.0015 ± 0.0092 | -0.001 ± 0.014 | 0.0215 ± 0.018 | 0.013 ± 0.0042 | -0.02 ± 0.014 | 0.0125 ± 0.0064 | 0.0005 ± 0.033 | 0.0045 ± 0.032 | -0.007 ± 0.0071 | -0.023 ± 0.0028 | -0.0055 ± 0.022 | -0.0045 ± 0.029
CASM3C:CD141/Thrombomodulin | -0.031 ± 0.0042 | 0.0235 ± 0.018 | 0.078 ± 0.014 | 0.191 ± 0.013 | -0.008 | -0.0065 ± 0.016 | -0.0135 ± 0.035 | 0.0105 ± 0.005 | -0.0085 ± 0.011 | -0.0015 ± 0.05 | -0.008 ± 0.03 | -0.0105 ± 0.022 | -0.0115 ± 0.018 | 0.0395 ± 0.046 | 0.0085 ± 0.022 | -0.014 ± 0.024 | -0.017 ± 0.051 | 0.015 ± 0.075 | -0.0045 ± 0.029 | -0.026 ± 0.04 | -0.0265 ± 0.0035 | 0.0055 ± 0.029 | 0.0165 ± 0.028 | 0.0415 ± 0.059 | -0.0085 ± 0.025 | 0.0065 ± 0.0064 | 0.011 ± 0.033 | -0.009 ± 0.031
BT:B cell Proliferation | 0.035 ± 0.017 | 0.017 ± 0.061 | 0.0165 ± 0.005 | -0.0405 ± 0.059 | 0.02 ± 0.061 | 0.009 ± 0.0057 | 0.0215 ± 0.06 | 0.0275 ± 0.012 | 0.003 ± 0.021 | 0.0225 ± 0.005 | 0.0115 ± 0.036 | 0.0045 ± 0.015 | 0.0065 ± 0.0035 | 0.0115 ± 0.025 | 0.025 ± 0.0042 | -0.001 ± 0.0057 | -0.005 ± 0.034 | 0.0345 ± 0.0078 | 0.016 ± 0.016 | 0.0415 ± 0.005 | 0.0475 ± 0.033 | -0.001 ± 0.0028 | 0.018 ± 0.0071 | 0.031 ± 0.0085 | 0.018 ± 0.0085 | 0.0145 ± 0.033 | 0.061 ± 0.028 | -0.002 ± 0.09
